# Data reported in the supplement of paper PMC5949888.
# Most values lie at the floor of the assay. Slopes are relative: functional sequences can read slightly below zero.
# Test system: Saccharomyces cerevisiae PS128 hsf1 delta, HSF1(1-493) fusion
# Assay: growth estimate (transactivation domain function in HSF1 fusion, heat-shock survival) (a.u. (slope of normalised read count over time)); higher = stronger growth at 37°C, i.e. more transactivation activity
# Settings: library: random library
row,Substance,growth estimate
1,QGCYQDIRISV,< -0.25
2,LAIAESLFRFKRQGPLCSRT,< -0.25
3,QTLL,< -0.25
4,LRCWRL,< -0.25
5,APCYRSGCYRARVVLAENDP,< -0.25
6,PGEDNHSWL,< -0.25
7,VNY,< -0.25
8,AASRWAGSFFGHFREPEGPD,< -0.25
9,FSGG,-0.182
10,QKRGSASVGRGGTVLPPSWG,< -0.25
11,PSTPGRGRVTEEI,< -0.25
12,HYIFPGAVNEYRGRECCFPG,< -0.25
13,HRIV,< -0.25
14,GPIECHPRQKA,< -0.25
15,EGENPRIAQMGLSRQVCGGP,< -0.25
16,VLPLDKVLCVLRRT,< -0.25
17,IYRNKQKGVLTLEEPGISGP,< -0.25
18,IVAIEVHSEPMFLYRYRRSA,< -0.25
19,GLQAW,< -0.25
20,WRIV,< -0.25
21,SNLNGTTS,< -0.25
22,QENISCIRVNAGKVARLRQV,< -0.25
23,LVHRGRGRIIAIDYPLVAST,< -0.25
24,PNVRRASVRVI,< -0.25
25,PYDM,< -0.25

row,Substance,growth estimate
1,RRRSISTRRGNSGATGAAHY,< -0.25
2,IKA,-0.228
3,GGMDENSGDCTATHKVPASK,< -0.25
4,VDASQWGVIA,< -0.25
5,KVGGGRGYLLCTRRGYTDSE,< -0.25
6,RSSGSNLWILKYF,< -0.25
7,SCTTGGRYEAIGSRSNPRRQ,< -0.25
8,LCRGWRNVNASGASIPVKLQ,< -0.25
9,YRGQKYATYAAADFSARPDW,< -0.25
10,HESFSHEVL,< -0.25
11,LGYPWDYGALGRTAGTCRT,< -0.25
12,LITDWQPK,< -0.25
13,KETGR,< -0.25
14,EKERAHFPGKEGYTPECLAA,< -0.25
15,SPKF,< -0.25
16,NPRCNRAVWPGVAEVGITLP,< -0.25
17,RLQMR,< -0.25
18,IKRGHTVIITSLLSAKEICS,< -0.25
19,SVVLAGLGFGRKPENSTGRR,< -0.25
20,VSDLLALKGCWLTLYTQSPT,< -0.25
21,PHRPGIIRYRSLCEAPPVAV,< -0.25
22,VAVASCVRKGWF,< -0.25
23,LGRLDLARKVFPPEALHTTL,< -0.25
24,GHSKDIQAPCVTTRLGVSSL,< -0.25
25,VYGWDGR,< -0.25

row,Substance,growth estimate
1,TGVGVRYR,< -0.25
2,SSGGTCIETG,< -0.25
3,RPGWVTLLSRVDRNCLLDER,< -0.25
4,VGHYC,< -0.25
5,VYVRLNLAEATIC,< -0.25
6,RVRSGNHSFVDDPDINSSVH,< -0.25
7,GLCCFCQFRQT,< -0.25
8,TITDLPVYAPHYSSINA,< -0.25
9,RYKTQPKNHPVLKPLELRQS,< -0.25
10,NSEFGGVSGRKAVTESEESR,< -0.25
11,VRVDSLCALVNKPKRYGDTT,< -0.25
12,IRLRPHINLCLGGSWRGAGC,< -0.25
13,LGGSGCQDARRQHVEHLSHR,< -0.25
14,GRDGDEAGGVRVCLG,< -0.25
15,ATIGVDRWVS,< -0.25
16,AVPSAALEILKNAAL,-0.246
17,KIPSSGVNSSWTLVSGFYIH,< -0.25
18,IGRKSGPRRLKGTPRYKGTD,< -0.25
19,GRLGCPLWYVSPLRVLCGEQ,< -0.25
20,AVGSLGTWRGNGEIWGPSTY,< -0.25
21,HGLSRPDCRRSEAEMS,< -0.25
22,LREACRIAAALQDGCLKLAS,< -0.25
23,FQLGRPRRGTSRRCSLVLKL,< -0.25
24,QPYSYNRGKLEGCSYAELLG,< -0.25
25,EYNFQA,< -0.25

row,Substance,growth estimate
1,SVARGSERCW,< -0.25
2,LCHLRRKCNFGCLHRYDFFS,< -0.25
3,SPASRGRRKVGVRGRNRDAT,< -0.25
4,KLIDADLH,< -0.25
5,PKQTWAPLGHRKKDTFSKAV,< -0.25
6,PSILITQRLI,< -0.25
7,KPA,< -0.25
8,IANGAVSTN,< -0.25
9,AHGHCSSGLAVRPAYGKEAP,< -0.25
10,TVREVNRIPLEFVRLYRPVS,< -0.25
11,WKRNNRCLFLSHR,< -0.25
12,TELPCYRCVQTISLVKSYSL,< -0.25
13,APTKVPFRIDQVLNIPRYGA,< -0.25
14,LRSRLQ,< -0.25
15,VAKFNGCDTVCQRHTEQSVP,< -0.25
16,DYRALRK,< -0.25
17,YMQSAR,< -0.25
18,VNVRCMFHNVGSGV,-0.246
19,IQEWVACYLFLTLSDNTVES,< -0.25
20,RGRCLDISAIRGPHWHEYHA,< -0.25
21,RPASRWGVRDGTHWSHRFAD,< -0.25
22,REETQSGALTALDAKRNERV,< -0.25
23,DASRPQGSRSSGESKGITAC,< -0.25
24,LPESRQVWSSIIERSVLPGT,< -0.25
25,VKLR,< -0.25

# A few values from the list.
# For growth estimate, LREACRIAAALQDGCLKLAS has < -0.25
# For growth estimate, QENISCIRVNAGKVARLRQV has < -0.25
# For growth estimate, SPKF has < -0.25
# For growth estimate, KVGGGRGYLLCTRRGYTDSE has < -0.25
# For growth estimate, TITDLPVYAPHYSSINA has < -0.25

# (further entries)

row,Substance,growth estimate
1,RPTEIELARCGPSAYPRMRA,< -0.25
2,CVVVVREFRLLRR,< -0.25
3,VYTTP,< -0.25
4,MTDREVWSNNRQNLQNNNKK,< -0.25
5,VEVVGYSGGSN,< -0.25
6,YPLRPNDQGAFTWGLR,< -0.25
7,ANGGADRRLHKQISGD,< -0.25
8,RTPDYTPTA,< -0.25
9,LRTCRASAGPTAVN,< -0.25
10,RLRYRTGRALPALVCALEDV,< -0.25
11,RWRPGTAGGSGHN,-0.246
12,AHTLRTMPGRTVEPPAWVRC,< -0.25
13,QNTPLLLFSSEGGGLYRVGS,< -0.25
14,GAGSGQPAPGVCAF,-0.246
15,QCAESGDRRQIRFRCRAQMS,< -0.25
16,AINGCASIVSPCTHRVRVIT,< -0.25
17,SSTS,< -0.25
18,IAAPKSTLRAQGRSPLFYVR,< -0.25
19,LWQYWLCAVNRESHPRADHL,< -0.25
20,AGRWT,< -0.25
21,ARHFTAGSNCVTRIGGVTDY,< -0.25
22,GSFLLIGHGKNRFVRQGTLA,< -0.25
23,QLFQFCLPVQEGDVIACPDT,< -0.25
24,LNEAKHESKLLLEVRECLVA,< -0.25
25,PPRTVPGLLEYEE,< -0.25

row,Substance,growth estimate
1,GGIS,< -0.25
2,KGLDRIPPNCRYMTKKIVTA,< -0.25
3,SIHAEYNPDSNCQTMCGSPR,< -0.25
4,LYPRSILVIAYLYSASLTHR,< -0.25
5,QFTVARCRCHRLKSSGCCTA,< -0.25
6,GYLPATDVVEDESVWNPLTR,< -0.25
7,RYLKSPRGPCMFPTGKGKVD,< -0.25
8,YGNWDCGQ,< -0.25
9,RMGWMGPVYHVGVTSRGGCI,< -0.25
10,SRKSSSLGSSFGFKIPEDEC,< -0.25
11,GGLGRDGLVPLSTVH,< -0.25
12,TGRFPFFEYTPRCAILLKVQ,< -0.25
13,YMYMR,< -0.25
14,RTPKVVIRVSSSSFYALTKG,< -0.25
15,RLGSAGSFLGLSNTHCASKR,< -0.25
16,LRTEGCLKRNIKGRLGFALR,< -0.25
17,RGWGIIRFNGKYFAHGMFIP,< -0.25
18,KRDRWPGAGYGRYVDQPIRL,-0.0414
19,MLC,< -0.25
20,LGWGQPSHRRYDLGNWNSSF,< -0.25
21,AMRR,< -0.25
22,PDLTEEPKCSLRARMVPTAL,< -0.25
23,SDRTKWATRPVPK,< -0.25
24,GEG,-0.132
25,KLMRNSRHRHQRKWAAGSFR,< -0.25

row,Substance,growth estimate
1,KGETVAARNAVTPAMRRGYA,< -0.25
2,GYPPFALLHFKGNLFF,< -0.25
3,LMNW,< -0.25
4,ECAFLVHPKSIGVALQVCSS,< -0.25
5,YPQKG,< -0.25
6,RSTRF,< -0.25
7,TSSGSH,< -0.25
8,CCTVGLGQDVKTTGV,< -0.25
9,VQG,< -0.25
10,LVAHSELGFVCGMFNGPATK,< -0.25
11,EGGAIHHETVLYSSIGADVP,< -0.25
12,LNNKDCKIFCCEKCDFKCEA,< -0.25
13,FIGRKSRV,< -0.25
14,RSLGARVLRPMYAA,< -0.25
15,RYVSARGP,< -0.25
16,CYLHYTTSGDVEMKRLAPRT,< -0.25
17,SLWRIPYR,< -0.25
18,TSMNAPTRHF,< -0.25
19,AHSTATPELNLRGTVISISY,< -0.25
20,EKS,< -0.25
21,PTGGHRCGPPCASRMHNGGH,< -0.25
22,PEGPWGAPYARGALQIWIED,< -0.25
23,IGLMTLRGVS,< -0.25
24,TRATC,< -0.25
25,VKLVATQCYL,< -0.25

row,Substance,growth estimate
1,NIGPCGLMSRIGLGTRLLRQ,< -0.25
2,SVNVIYWPRGRDFDVAPDPC,< -0.25
3,WVVSTR,< -0.25
4,LGYLCQCGSETRGRRTLHRT,< -0.25
5,VRVYGGRREL,< -0.25
6,HVSVSDYRV,< -0.25
7,TKCNSNMRLRGYHTPVTKHT,< -0.25
8,QLGPRPRCEQHRPGSGWPSR,< -0.25
9,YSPGENVS,< -0.25
10,GLFDYHEMRITAS,< -0.25
11,GRPGRNFSWPSRTD,< -0.25
12,RTDPRAHSLPKDGGGNNQCL,< -0.25
13,VPRRYNNASHTD,-0.116
14,TQSDAIRVHAVQTSADSPLH,< -0.25
15,PPLLNQ,< -0.25
16,RGSVGRILPDRVRNQFYPAS,< -0.25
17,ADGTQ,< -0.25
18,LLMGS,< -0.25
19,RPNQRAQTLTLLELTGRGSG,< -0.25
20,RPSSLILGYKYTVYALTTDT,< -0.25
21,RGTVT,< -0.25
22,YCKI,< -0.25
23,KVTLALRHLTVL,< -0.25
24,GEQRHTQGGTYLFWEQRAQA,< -0.25
